Test system: tracer antibody
Experiment: p-BNC bead-based competitive immunoassay for phenytoin and phenobarbital (drug standards)

SMILES: O=C1NC(=O)C(c2ccccc2)(c2ccccc2)N1 [phenytoin, Phenytoin]
- limit of detection (from plot of concentration versus linear profile intensity, FIG. 8A-B, 300 ms exposure): about 0.69 ng/mL
- limit of detection (LOD) (proof of concept, from plot of concentration and signal intensity, FIG. 5C / FIG. 5E): approximately 10.8 ng/mL

From patent US20150111778A1, “BIO-NANO-CHIP FOR ANTI[…] SALIVARY ASSAY” (WILLIAM MARSH RICE UNIVERSITY, priority 2013, published 2015)
